From US6372278B1, “Sweetener composition” (Ajinomoto Co., Inc., priority 1998, dated 2002)
Peptide text beside a SMILES is read from it.

Assay: Quality of sweetness compared with sucrose
Description: It is reported that the sweetness strength or sweetening potency of the synthetic high-potency sweetener, NM, is about 10,000 times that of sucrose in terms of weight ratio (Japanese Patent Kohyou Publication JP-A-8-503206). […] Further, NM has a strong astringent taste. Accordingly, the balance of the quality of sweetness properties for NM is poor when compared to sucrose. Sucrose is generally regarded as the standard for evaluating the properties or characteristics of the quality of sweetness.
It is also reported that the sweetness strength of the amino acid type synthetic sweetener, APM, is about 200 times that of sucrose in weight ratio (See Japanese Patent Kokoku Publication JP-B-47-3 1031). APM has a sweetness quality characterized by a weak early taste and a strong later taste as compared with sucrose.

SMILES	early taste	later taste
COC(=O)[C@H](Cc1ccccc1)NC(=O)[C@@H](N)CC(=O)O [APM, Aspartame] (H-Asp-Phe-OMe)	weak	strong
COC(=O)[C@H](Cc1ccccc1)NC(=O)[C@H](CC(=O)O)NCCC(C)(C)C [NM]	extremely weak	extremely strong
